Test results from publication PMC8733394.
No constants are given. Whether binding was seen depends on the method and setting. For some of these results: In cells and extracts the contact can be indirect. Some binding calls cover weakened binding; strength is not graded here. Where a sequence is shown, tags or fusion partners need not be part of it.

T1: tu1 I-1-BD (TSN1 fragment, 1-380 amino acids) (Arabidopsis thaliana) (UniProt Q8VZG7)
T1 sequence: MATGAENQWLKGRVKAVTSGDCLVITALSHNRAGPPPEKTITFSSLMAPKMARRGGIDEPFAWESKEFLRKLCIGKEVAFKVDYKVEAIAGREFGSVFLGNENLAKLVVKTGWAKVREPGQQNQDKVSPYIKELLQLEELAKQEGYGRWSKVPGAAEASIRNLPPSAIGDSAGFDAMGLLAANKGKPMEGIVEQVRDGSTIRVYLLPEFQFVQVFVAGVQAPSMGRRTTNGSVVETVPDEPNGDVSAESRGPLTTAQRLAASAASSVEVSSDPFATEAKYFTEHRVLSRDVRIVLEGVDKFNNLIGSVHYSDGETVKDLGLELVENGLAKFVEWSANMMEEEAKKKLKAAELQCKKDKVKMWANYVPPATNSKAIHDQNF

T2: tu1 II-BD (TSN1 C-terminal fragment, 721-970 amino acids) (Arabidopsis thaliana) (UniProt Q8VZG7)
T2 sequence: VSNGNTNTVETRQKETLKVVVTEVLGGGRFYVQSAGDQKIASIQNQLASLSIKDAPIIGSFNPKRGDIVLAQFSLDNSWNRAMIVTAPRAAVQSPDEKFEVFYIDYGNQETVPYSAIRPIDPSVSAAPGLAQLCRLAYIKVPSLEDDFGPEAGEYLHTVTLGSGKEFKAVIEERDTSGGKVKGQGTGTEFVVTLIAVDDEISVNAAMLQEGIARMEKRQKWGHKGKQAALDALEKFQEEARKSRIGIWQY

T3: tu1 I-2-BD (TSN1 fragment, 381-720 amino acids) (Arabidopsis thaliana) (UniProt Q8VZG7)
T3 sequence: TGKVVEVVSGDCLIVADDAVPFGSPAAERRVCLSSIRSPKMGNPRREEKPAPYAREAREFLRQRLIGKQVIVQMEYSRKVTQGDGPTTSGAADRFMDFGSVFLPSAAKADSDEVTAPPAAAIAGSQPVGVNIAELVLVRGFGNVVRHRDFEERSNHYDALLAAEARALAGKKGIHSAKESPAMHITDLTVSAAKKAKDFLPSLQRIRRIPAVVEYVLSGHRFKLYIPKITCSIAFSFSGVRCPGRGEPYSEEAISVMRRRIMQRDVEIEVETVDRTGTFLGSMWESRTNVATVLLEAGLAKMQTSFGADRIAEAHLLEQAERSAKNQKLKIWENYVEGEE

T4: TSN1-NLuc (Arabidopsis thaliana) (UniProt Q8VZG7)
T4 sequence: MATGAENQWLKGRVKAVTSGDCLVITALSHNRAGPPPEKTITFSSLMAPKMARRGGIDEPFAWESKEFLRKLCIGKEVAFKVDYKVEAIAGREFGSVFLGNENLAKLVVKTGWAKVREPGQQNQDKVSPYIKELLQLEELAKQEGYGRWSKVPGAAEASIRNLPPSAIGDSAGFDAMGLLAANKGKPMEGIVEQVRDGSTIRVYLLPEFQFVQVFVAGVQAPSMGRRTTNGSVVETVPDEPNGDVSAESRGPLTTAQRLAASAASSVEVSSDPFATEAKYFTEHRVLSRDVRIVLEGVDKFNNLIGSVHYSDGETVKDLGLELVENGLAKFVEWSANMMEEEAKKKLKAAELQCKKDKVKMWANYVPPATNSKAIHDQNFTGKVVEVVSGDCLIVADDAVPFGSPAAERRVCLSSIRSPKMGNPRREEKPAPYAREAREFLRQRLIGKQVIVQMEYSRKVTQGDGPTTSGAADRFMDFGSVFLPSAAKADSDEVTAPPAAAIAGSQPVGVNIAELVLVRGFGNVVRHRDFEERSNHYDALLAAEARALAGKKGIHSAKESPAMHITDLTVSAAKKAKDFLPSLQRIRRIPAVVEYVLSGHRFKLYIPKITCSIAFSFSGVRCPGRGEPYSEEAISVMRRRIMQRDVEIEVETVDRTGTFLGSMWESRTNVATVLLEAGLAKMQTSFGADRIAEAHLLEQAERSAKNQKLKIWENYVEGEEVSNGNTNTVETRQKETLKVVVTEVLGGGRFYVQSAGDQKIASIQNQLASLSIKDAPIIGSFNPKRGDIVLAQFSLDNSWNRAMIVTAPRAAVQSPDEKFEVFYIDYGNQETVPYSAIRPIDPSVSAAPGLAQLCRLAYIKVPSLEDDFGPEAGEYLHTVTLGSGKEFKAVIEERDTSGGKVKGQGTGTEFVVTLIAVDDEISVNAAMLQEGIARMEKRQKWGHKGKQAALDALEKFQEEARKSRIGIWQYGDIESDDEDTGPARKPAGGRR


Key:
[1] = molecular target: T1, tu1 I-1-BD (TSN1 fragment, 1-380 amino acids) (Arabidopsis thaliana); experiment: two-hybrid; yeast AH109; RH31 in pGADT-7 (AD), TSN1 fragments in pGBKT-7 (BD); 30 C; growth on selective medium SD/-L-T-A
[2] = molecular target: T2, tu1 II-BD (TSN1 C-terminal fragment, 721-970 amino acids) (Arabidopsis thaliana); experiment: as above
[3] = molecular target: T3, tu1 I-2-BD (TSN1 fragment, 381-720 amino acids) (Arabidopsis thaliana); experiment: as above
[4] = molecular target: T4, TSN1-NLuc (Arabidopsis thaliana); experiment: split reporter; firefly luciferase complementation imaging (LCI); CLuc-RH31, TSN1-NLuc and P19 co-infiltrated by Agrobacterium GV3101 into N. benthamiana leaves, 23 C for 3 days, CCD imaging of LUC activity

| binding [1] | binding [2] | binding [3] | binding [4] | Binder |
| --- | --- | --- | --- | --- |
| no binding | binds | no binding |  | RH31-AD (protein, UniProt Q9FFQ1 1-716) MPLNFPLRIRFFAHSLSGTHLSYNTSSSVPLLFRIFSSGLNHFEFGSRINFSTRPNRDQPEFERRIRDGGEIRASKSLIEDEEELSNWVSGFRTGSSRGILKSDDEDEEDRSRGRNQEKRGIRNQVDSFRNKRYGGDRERGFNSRIQGKSSEASFRGRKETSFSRDREDEKGLRKREDLRLEDESSDEDVKSLVMGDIGDLLSEDDEEEDQDYDFLKKKAVSAFGFDKENVIEADKTRNANDSYLTKTRFDHYPLSPLSLKAIKDAGYETMTVVQEATLPIILKGKDVLAKAKTGTGKTVAFLLPSIEVVVKSPPTSPDNKRPPILALVICPTRELANQAATEANTLLKYHPSIGVQVVIGGTRLGLEQKRMQTNPCQILVATPGRLKDHIENTPGFATRLKGVKVLVLDEADHLLDMGFRKDIERIISAVPKERQTFLFSATVPEEVRQICLVALRRDHEFVNCVHEGTIETHQQVRQMHMIASLDRHFSLLYTLLREHIMGNVDYKVIVFCTTAMVTKLVADLLGELNLNVREIHSRKPQSYRTRVSNEFRKSKGLILVTSDVSARGVDYPDVTLVLQVGLPKDREQYIHRLGRTGRKGKEGEGILLLAPWEEYFLSSLKDLPITKSPLPSIDPETVKKVQKALCHVEMRNKEAAYQAWLGYYNSQKMIGRDKDRLVELANEFSRSMGLDNPPAIPKLILGKMGLKNVPGLRAK |
|  |  |  | binds | CLuc-RH31 (protein, UniProt Q9FFQ1 1-716) MPLNFPLRIRFFAHSLSGTHLSYNTSSSVPLLFRIFSSGLNHFEFGSRINFSTRPNRDQPEFERRIRDGGEIRASKSLIEDEEELSNWVSGFRTGSSRGILKSDDEDEEDRSRGRNQEKRGIRNQVDSFRNKRYGGDRERGFNSRIQGKSSEASFRGRKETSFSRDREDEKGLRKREDLRLEDESSDEDVKSLVMGDIGDLLSEDDEEEDQDYDFLKKKAVSAFGFDKENVIEADKTRNANDSYLTKTRFDHYPLSPLSLKAIKDAGYETMTVVQEATLPIILKGKDVLAKAKTGTGKTVAFLLPSIEVVVKSPPTSPDNKRPPILALVICPTRELANQAATEANTLLKYHPSIGVQVVIGGTRLGLEQKRMQTNPCQILVATPGRLKDHIENTPGFATRLKGVKVLVLDEADHLLDMGFRKDIERIISAVPKERQTFLFSATVPEEVRQICLVALRRDHEFVNCVHEGTIETHQQVRQMHMIASLDRHFSLLYTLLREHIMGNVDYKVIVFCTTAMVTKLVADLLGELNLNVREIHSRKPQSYRTRVSNEFRKSKGLILVTSDVSARGVDYPDVTLVLQVGLPKDREQYIHRLGRTGRKGKEGEGILLLAPWEEYFLSSLKDLPITKSPLPSIDPETVKKVQKALCHVEMRNKEAAYQAWLGYYNSQKMIGRDKDRLVELANEFSRSMGLDNPPAIPKLILGKMGLKNVPGLRAK |
